Publication PMC4363703
These are yes or no findings as the source states them, for the method shown. Some results given as binding are weak or reduced against the parent protein; the word gives no strength.

Target: T1, Sam50 (human (endogenous in HeLa)) (UniProt Q9Y512)
T1 sequence: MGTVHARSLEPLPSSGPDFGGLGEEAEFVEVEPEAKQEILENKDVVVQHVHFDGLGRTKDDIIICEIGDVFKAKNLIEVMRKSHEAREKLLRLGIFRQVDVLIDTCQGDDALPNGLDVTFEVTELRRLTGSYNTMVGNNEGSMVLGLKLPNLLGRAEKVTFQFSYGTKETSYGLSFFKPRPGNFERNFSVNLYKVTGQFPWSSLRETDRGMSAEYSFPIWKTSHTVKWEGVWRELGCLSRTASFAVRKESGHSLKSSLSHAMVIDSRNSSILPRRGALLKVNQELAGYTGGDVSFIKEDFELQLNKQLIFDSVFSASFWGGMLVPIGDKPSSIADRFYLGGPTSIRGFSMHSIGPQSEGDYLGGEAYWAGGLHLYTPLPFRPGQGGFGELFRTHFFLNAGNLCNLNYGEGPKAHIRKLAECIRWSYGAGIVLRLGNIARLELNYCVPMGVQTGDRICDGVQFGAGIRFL
Experiment: native gel or EMSA; 35S-labeled Mic23/ApoO imported at 37°C into isolated mitochondria (50 μg per lane) of non-induced and induced knockdown cell lines or HeLa cells, lysed in 1% digitonin buffer, 4-10% BN-PAGE, autoradiography; >1 MDa complex

B1: 35S-labeled Mic23/ApoO precursor (protein, UniProt Q9BUR5 1-198)
chain: MFKVIQRSVGPASLSLLTFKVYAAPKKDSPPKNSVKVDELSLYSVPEGQSKYVEEARSQLEESISQLRHYCEPYTTWCQETYSQTKPKMQSLVQWGLDSYDYLQNAPPGFFPRLGVIGFAGLIGLLLARGSKIKKLVYPPGFMGLAASLYYPQQAIVFAQVSGERLYDWGLRGYIVIEDLWKENFQKPGNVKNSPGTK
modifications: 35S-methionine/cysteine labelled
Q: With B1 as the binder, how does the binding read?
A: binds
